# In patent US9051310B2, “Nicotinamide derivative or salt thereof” (FUJIFILM Corporation, priority 2011, dated 2015):
# Structures were worked out from names or drawings and are uncertain.
# Target: glutathione S-transferase (GST)-linked full-length human Syk protein (Homo sapiens, UniProt P43405)
# Assay: Syk enzyme assay
# Settings: read-out: IC50 of Syk-inhibitory activity; 0.83 nM Syk, time-resolved fluorescence; tested form: HCl
row,IC50 [nM],SMILES
1,50 to 100,CC(=O)N1CC[C@@H](Nc2nc(Nc3ccnc(N4CCOCC4)c3F)c(C(N)=O)cc2F)[C@@H](N)C1 (relative stereo)
2,< 10,CC(=O)N1CC[C@@H](Nc2nc(Nc3cnc(C)c(-n4nccn4)c3)c(C(N)=O)cc2F)[C@@H](N)C1 (relative stereo)
3,10 to 50,CC(=O)N1CC[C@@H](Nc2nc(Nc3cncc(C)c3)c(C(N)=O)cc2F)[C@@H](N)C1 (relative stereo)
